These are yes or no findings as the source states them, for the method shown. In cells and extracts the contact can be indirect. Some binding calls cover weakened binding; strength is not graded here.
Molecular target: T1, Sirtuin1 (SIRT1) (mouse (endogenous in primary peritoneal macrophages)) (UniProt Q923E4)
T1 sequence: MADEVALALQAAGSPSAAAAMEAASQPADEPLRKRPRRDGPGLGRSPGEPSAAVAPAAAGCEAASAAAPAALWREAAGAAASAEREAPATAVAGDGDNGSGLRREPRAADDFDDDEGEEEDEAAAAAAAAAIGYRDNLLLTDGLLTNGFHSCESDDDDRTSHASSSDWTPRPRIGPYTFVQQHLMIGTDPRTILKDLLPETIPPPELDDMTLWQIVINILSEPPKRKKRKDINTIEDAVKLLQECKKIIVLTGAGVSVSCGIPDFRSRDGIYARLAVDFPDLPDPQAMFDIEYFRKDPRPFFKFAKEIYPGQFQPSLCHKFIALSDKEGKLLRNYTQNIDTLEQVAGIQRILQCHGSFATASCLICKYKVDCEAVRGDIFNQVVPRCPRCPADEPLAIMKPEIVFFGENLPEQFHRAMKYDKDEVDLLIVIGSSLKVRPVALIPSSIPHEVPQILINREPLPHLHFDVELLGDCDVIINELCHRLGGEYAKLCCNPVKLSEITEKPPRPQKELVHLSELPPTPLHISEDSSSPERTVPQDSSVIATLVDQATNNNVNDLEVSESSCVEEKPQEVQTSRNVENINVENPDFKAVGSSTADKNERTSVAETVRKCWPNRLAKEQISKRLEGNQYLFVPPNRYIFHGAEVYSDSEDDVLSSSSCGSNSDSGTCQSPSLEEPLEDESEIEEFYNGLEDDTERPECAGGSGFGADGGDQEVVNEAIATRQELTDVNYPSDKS
Experiment: co-IP; cell lysate (lysis buffer with PMSF) pre-cleared with Dynabeads Protein G, SIRT1 polyclonal antibody added overnight at 4 °C, beads washed 3 times with lysis buffer, SIRT1-binding proteins analysed by western blotting

Sequences of proteins named here, by UniProt entry; tags and fusion partners are left off.
UniProt Q04207: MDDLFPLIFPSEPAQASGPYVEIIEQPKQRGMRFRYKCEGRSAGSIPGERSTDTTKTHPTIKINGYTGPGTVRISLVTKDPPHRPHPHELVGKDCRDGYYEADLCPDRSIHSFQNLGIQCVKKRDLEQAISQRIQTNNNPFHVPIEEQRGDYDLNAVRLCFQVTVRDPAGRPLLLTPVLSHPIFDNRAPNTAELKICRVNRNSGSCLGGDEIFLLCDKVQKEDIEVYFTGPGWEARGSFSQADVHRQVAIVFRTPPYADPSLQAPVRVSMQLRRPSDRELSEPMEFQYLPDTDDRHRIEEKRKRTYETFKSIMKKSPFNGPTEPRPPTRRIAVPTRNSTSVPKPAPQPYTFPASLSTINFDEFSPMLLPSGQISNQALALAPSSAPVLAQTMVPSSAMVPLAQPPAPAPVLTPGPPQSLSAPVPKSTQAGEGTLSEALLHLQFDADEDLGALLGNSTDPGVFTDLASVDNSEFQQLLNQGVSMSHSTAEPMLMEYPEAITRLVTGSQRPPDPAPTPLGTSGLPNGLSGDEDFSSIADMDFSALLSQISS

binding: binds
Substance: NF-κB P65 (from UniProt Q04207 1-549)

— article PMC11566926
